Test results published in ChEMBL document CHEMBL1909046, “DrugMatrix in vitro pharmacology data”.

Sequences of proteins named here, by UniProt entry; tags and fusion partners are left off. A change or cut given only in a name is not applied to a line headed by its entry.
UniProt P41145: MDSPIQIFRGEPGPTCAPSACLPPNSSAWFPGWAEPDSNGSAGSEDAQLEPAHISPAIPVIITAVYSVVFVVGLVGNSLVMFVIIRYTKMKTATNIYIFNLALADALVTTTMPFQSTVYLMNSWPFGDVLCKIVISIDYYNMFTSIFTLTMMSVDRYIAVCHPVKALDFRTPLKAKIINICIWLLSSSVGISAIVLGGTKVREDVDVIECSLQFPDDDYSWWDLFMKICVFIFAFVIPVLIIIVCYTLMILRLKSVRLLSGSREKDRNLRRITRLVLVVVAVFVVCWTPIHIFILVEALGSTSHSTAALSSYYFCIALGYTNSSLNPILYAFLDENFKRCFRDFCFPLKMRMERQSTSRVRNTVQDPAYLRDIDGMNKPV

Experiments:
[1] = DRUGMATRIX: Platelet-Derived Growth Factor (PDGF) radioligand binding (ligand: [125I] PDGF); assay type: cell-based; details: nih3t3; Not Active = under 50% inhibition at 10 µM
[2] = molecular target: Kappa-type opioid receptor (Homo sapiens, UniProt P41145); assay: DRUGMATRIX: Opiate kappa (OP2, KOP) radioligand binding (ligand: [3H] Diprenorphine); assay type: cell membranes, Membrane; details: hek293; Not Active = under 50% inhibition at 10 µM

CCN(Cc1ccncc1)C(=O)C(CO)c1ccccc1 (stereo not drawn) [TROPICAMIDE]
Not Active: IC50 [1] | Ki [1] | IC50 [2]
